# PMC9700521
# Chains of the proteins cited; added tags and fusions are not shown.
# UniProt Q96FW1: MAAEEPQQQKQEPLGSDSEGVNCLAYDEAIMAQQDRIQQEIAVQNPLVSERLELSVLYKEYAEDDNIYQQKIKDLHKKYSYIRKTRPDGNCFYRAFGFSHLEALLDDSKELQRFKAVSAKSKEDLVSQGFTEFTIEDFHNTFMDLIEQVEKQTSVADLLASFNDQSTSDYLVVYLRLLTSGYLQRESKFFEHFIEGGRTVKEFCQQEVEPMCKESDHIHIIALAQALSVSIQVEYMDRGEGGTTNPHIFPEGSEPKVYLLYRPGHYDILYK
# UniProt P46937: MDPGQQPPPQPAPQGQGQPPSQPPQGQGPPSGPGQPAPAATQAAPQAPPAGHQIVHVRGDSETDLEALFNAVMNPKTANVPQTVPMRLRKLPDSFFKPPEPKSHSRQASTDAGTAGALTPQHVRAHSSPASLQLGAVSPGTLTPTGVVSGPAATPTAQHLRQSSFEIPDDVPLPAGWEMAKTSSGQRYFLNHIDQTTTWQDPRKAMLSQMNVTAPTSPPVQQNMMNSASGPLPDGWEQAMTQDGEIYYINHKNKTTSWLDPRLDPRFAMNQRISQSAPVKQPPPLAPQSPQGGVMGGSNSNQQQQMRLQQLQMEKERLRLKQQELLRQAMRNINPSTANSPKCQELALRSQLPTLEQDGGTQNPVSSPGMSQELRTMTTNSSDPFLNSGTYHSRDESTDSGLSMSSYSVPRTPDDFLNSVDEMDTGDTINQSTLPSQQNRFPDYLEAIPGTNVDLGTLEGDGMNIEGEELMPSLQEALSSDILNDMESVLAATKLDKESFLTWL
# These are yes or no findings as the source states them, for the method shown. For some assays here: Binding seen in cells or lysates may run through a third protein. Some entries that bind do so weakly or less than the wild type.
# What was measured:
# GST-OTUB1 = GST-OTUB1 (UniProt Q96FW1); assay: pull-down; GST-agarose bead bound GST-OTUB1 or GST incubated with purified His-YAP; eluates analysed by western blot; both purified
# OTUB1-flag = OTUB1-flag (UniProt Q96FW1); assay: co-IP; OTUB1-flag and YAP-myc (WT or truncated) co-transfected into HEK293T cells; IP with OTUB1 (Flag), protein A/G agarose beads, western blot
binding (GST-OTUB1),binding (OTUB1-flag),Substance
binds,,His-YAP (from UniProt P46937 1-504)
,binds,YAP-myc (from UniProt P46937 1-504)
